Results reported in PubChem BioAssay AID1347423 (Functional Genomics Laboratory (NCATS/FGL), 2020).
Out of some 52,000 sequences screened, about 210 (0.4%) were called active.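 How the source made its calls: active means gene whose silencing raises cell survival under the drug, median off-target-corrected z-score across its silencing RNAs 2 or more; inactive means the rest.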 The list shows a part of the results.

Assay: Resistance to Poly (ADP-Ribose) Polymerase inhibitor: Gene Identification via Genome-wide siRNA Screen
Details: mouse BRCA2 R2336H ES cells, olaparib, CellTiter-Glo viability; stronger effect = higher value
How it was run: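 Mouse BRCA2 R2336H ES cells were reverse-transfected with siRNA (20 nM final), treated at 48 h with 500 nM olaparib, and read by CellTiter-Glo after 72 h. Scores: MAD-based z per siRNA, median per gene, seed off-target correction.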

Sequence | z-score
GGAUGAAGACAAUGAUAUUTT against Evi1 | inactive: -0.186
GGAACCUAAUUAGCAAAGCTT against 2310007A19Rik | inactive: 0.952
CAGCUUGUGCUCGAGUAAATT against LOC433762 | inactive: -0.981
GCCAUGUGAGACUCUUAUATT against Slc2a9 | inactive: 0.554
CCUAAUGAUGGCUCUUACUTT against Eltd1 | inactive: 0.0122
CCCACUAAUAGCACUGUCCTT against Olfr746 | inactive: 0.51
GCGACUCACUAUUUGGGCATT against Ell3 | inactive: 0.832
CCUCAAUUGGAUAAAGAAGTT against Gzma | inactive: 0.243
GCUAUCCCUUAAAUGCUCATT against E430002G05Rik | inactive: 0.547
GGGAAAUUAUCGCUUUAUGTT against Invs | inactive: 1.71
GCUAUUGUGGUAUGGAUUATT against Il2ra | inactive: 1.78
GGGAGAAGAUCUAAUUCAATT against Cd34 | inactive: 1.21
GGUGCUUUGAAGUUUUUCATT against 9630005B12Rik | inactive: 0.521
GUCCUAAAACGAGUGAGAGTT against Trib3 | inactive: -0.173
GGUCAAGUAUCUGAGAAAATT against 2700094K13Rik | inactive: -1.58
GGAAGAAGCAACCACAUUCTT against Evl | inactive: -1.71
GGGAAAGGAGGACAAAGAGTT against Gip | inactive: -1.49
GGGUUCUGUUGACUAACUATT against Hip2 | inactive: 1.08
GGCUUUUCAGCAGGUUUAATT against Ube2g1 | inactive: -1.69
GGAGUUUCAAGAAAAAAGGTT against BC021891 | inactive: 0.462
CCUAUUAUAGGACAAAGUATT against Efhc2 | inactive: 0.558
GGCUUCCAUCCUUUCUUUGTT against Ilf2 | inactive: 0.657
CGUUUUGUACAGAUAUACUTT against ORF9 | inactive: 0.184
GGAACUGUUAGAAAAUGGATT against Sh2d3c | inactive: 0.891
CCUAACACCAGGAACCAAATT against Upk2 | inactive: -0.991
GGAAAAACAAACCUAGCAUTT against Ets1 | inactive: 0.971

Sequence | z-score
GUAGAGAAGGAAGAGUGCCTT against Fshb | inactive: 0.105
CCUACAACGGGAAAACCGATT against BC063749 | inactive: 0.528
GCUUAUGUUAAACCAGAGATT against Syt8 | inactive: -0.391
ACCAGCACGACAGAUGCUATT against Pla2g12a | inactive: 0.603
GGCUUCCACAUAAAAACGATT against 2410015N17Rik | inactive: -0.0731
GCAUGAUGAUGGAGACCGATT against Sox1 | inactive: -0.796
GUGAUUAGCCGAAAGGGCUTT against Olfr1032 | inactive: 1.25
GCCUUAGGAAAUUCUCAAUTT against C430048L16Rik | inactive: -0.919
GGUCAGAUGCAGUGCAAGATT against Cldn4 | inactive: -1.02
CCGGUAUUGCUGUUCCUGGTT against Agxt | inactive: 0.223
GGUUAAGAGUAUCGUCAGCTT against Katnal1 | inactive: -0.221
GGUAUUCUUGGUGUUAGAATT against 4933402O15Rik | inactive: 0.515
GCGAAAACUUCGGAUCUAUTT against Smarcd2 | inactive: 1.16
GGCAUUUCUGUUCUGUAAGTT against Sh3bgrl | inactive: 0.378
GCAGAAGUCAGUCAUGAAUTT against Fbf1 | inactive: 0.961
GGGCAUAACGUGUUCACAUTT against 1110032A04Rik | inactive: -0.12
GCAGUUUGGUCACCUACCATT against 4930583K01Rik | inactive: -2.18
CCAUCAGGUUGACGACUUUTT against Olfr90 | inactive: -2.07
CCUCUGUGAUCCCUAAGAATT against Ubd | inactive: -0.259
CCCGCUAUUUGGUGCUAACTT against Amh | inactive: 0.646
CGACAAUCAACCUACCAGCTT against Cd68 | inactive: 0.26
GGAAUGACAAGCUGAAGAUTT against Zfp67 | inactive: -2.51
GCAACAAGCUGAUAGGGACTT against Otof | inactive: -0.387
GGAUUCAUAUGUGAUUGACTT against Flt4 | inactive: 1.2
GCAGGCAUUCUCUCAAAAUTT against 0610011I04Rik | inactive: -0.148
GGAAUUCAUGUUUUCGCUUTT against Slc9a3r2 | inactive: 0.973

Quoted at random: 6 entries already listed
Sequence | z-score
GUGAUUAGCCGAAAGGGCUTT against Olfr1032 | inactive: 1.25
GCAUGAUGAUGGAGACCGATT against Sox1 | inactive: -0.796
ACCAGCACGACAGAUGCUATT against Pla2g12a | inactive: 0.603
GGCUUCCACAUAAAAACGATT against 2410015N17Rik | inactive: -0.0731
GCAGGCAUUCUCUCAAAAUTT against 0610011I04Rik | inactive: -0.148
GCAGAAGUCAGUCAUGAAUTT against Fbf1 | inactive: 0.961

Additional results

Sequence | z-score
CCAGGGAUCUACAUCUACATT against Olfr1367 | inactive: 1.13
CCUCACAGUAUUCGGCCGATT against Adamts2 | inactive: 0.499
GCGGAACCUAUAUAGGAAUTT against Zfp74 | inactive: 1.61
GGAGAAAACAGGAAUUGUGTT against H2-Eb1 | inactive: 1.12
GGCAAAGUUCUCUUCCAUATT against Olfr914 | inactive: 0.698
GCCCAAGAAUGUGCCUUAUTT against Olfr1278 | inactive: -0.961
GGACAAACUGGACUAUUAUTT against Galnt15 | inactive: -1.22
GGAACAAGCAUACAGGUUCTT against Nphp1 | inactive: 1.6
GGUACUAAAUAUAAAUGGCTT against Igsf6 | inactive: 0.593
GGCUAACCACAUUUGCUUCTT against Zic4 | inactive: -0.5
GGCAACAGCAUCCUACUCUTT against Olfr652 | inactive: -1.26
GGUUGAGUGUUUAACUUAGTT against Trappc5 | inactive: -0.104
GCUAUUUGUCCCUUAGCAGTT against Slc22a5 | inactive: 0.408
GCAAGAACCUAGAGUUAUUTT against Zfp105 | inactive: -0.599
CCAAUACGAACAACUUGCATT against Krt1-10 | inactive: 0.786
GCAAUGGGUUGUAAAUUUATT against Fndc3 | inactive: 0.325
GGACAACGUAGCCUUCGUUTT against 3100002P13Rik | inactive: -1.8
GGAGAAGAUUCCAGAAGCCTT against Tcf15 | inactive: 0.123
CCCUCAAGUACGAAAUCAATT against 5830427H10Rik | inactive: 2.33
GGAUUCAGAAGCAGCAACATT against Nr1h2 | inactive: 0.194
GGCUGAUAAAAGUUUCAGATT against C9 | inactive: 0.875
CCGGGAUAACGACCCUAAUTT against Polr2c | inactive: -1.03
GGACCUGGUUAAGAUAUGUTT against Pmch | inactive: 1.37
GGAUGAGAAACCAUUUAAATT against Oas1f | inactive: 1.31
GCAGUUUUUGAGUCACUACTT against AY314008 | inactive: 2.48
GCAGAUCAACUACGGGAAGTT against Slbp | inactive: -1.16

Sequence | z-score
GGGCAGUGCCUAUUUGAACTT against Cyp4f18 | inactive: -1.33
GGAUCACGGUCUACAAUAATT against 1700009J07Rik | inactive: -0.326
GGCUGUGGACUCUGCAUGUTT against Prkwnk4 | inactive: 0.213
CCUUAGUUAGAAAUGUUGATT against Xkh | inactive: 0.357
GCAGUGUCCAGUAAAGAUUTT against Pwwp1 | inactive: -1.23
GGAGCACUUUAAGUUAUACTT against 2310014L17Rik | inactive: -0.644
GCAGAAACCGUAAAAGCCUTT against Lypla1 | inactive: 0.627
GGUUUUACAGAACAUGGUATT against 5730589K01Rik | inactive: -1.74
GGAGGAGAGAUGGUAAUCCTT against Olfr729 | inactive: -1.83
GCGACCAUUUCGUUUUAGUTT against Frat1 | inactive: 0.402
CGAGACUCUAGAUAGACUGTT against Zswim3 | inactive: 0.0084
CCGUUUUGGUCACGUAUCATT against Olfr599 | inactive: -0.848
GGAGCUGUCUAUCACCUGGTT against Popdc2 | inactive: 1.48
GGCUCUUUGUUCAGUUUUUTT against Fxyd3 | inactive: 0.0991
GGACAGUCUGCUCAUCGACTT against 2310066E14Rik | inactive: 0.223
GGAAGAAGCACAAUUUGAATT against 15-Sep | inactive: 0.295
GCUUCAGUGGCUACUCUUGTT against H2-M2 | inactive: -0.579
GGUCUUCUACAACUCGGAATT against Sgpp1 | active: -0.0398
GGAAUGAGAUGUUUUGAGUTT against Ostf1 | inactive: -0.741
GGUUUUUUGCUCUAUUUGATT against B430315C20Rik | inactive: 0.144
GCUCUACAGAUGCCACCACTT against Mlycd | inactive: -0.497
CCUGAUGUAACUAUAAACATT against Adam32 | inactive: 0.332
GCAAUAAAUGGGAACUUACTT against Lrpprc | inactive: 0.84
GGUGUGUCUGUGCUUAUUUTT against Olfr780 | inactive: -0.396
CCUAAGAGAUAAGAGCACCTT against 1110013G13Rik | inactive: -0.663
GGGACCUAGGGAGAAAGAGTT against 6330419J24Rik | inactive: -0.511
